Patent publication US20080038277A1, “Dna Pkinase Inhibitors For Treating Cancer And Diabetes” (priority 2004, published 2008)

System: S473K2
Conditions: data not shown

## CN[C@@H]1C[C@H]2O[C@@](C)([C@@H]1OC)n1c3ccccc3c3c4c(c5c6ccccc6n2c5c31)C(=O)NC4 [staurosporine]
  S473K2 fraction sensitivity to inhibitor: sensitive
